Measurements reported in PubChem BioAssay AID1053208 (Peter MacCallum Cancer Centre, 2014)
Aim: 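Find knock-downs that sensitise mouse osteosarcoma cells to doxorubicin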 (primary screen). System: mouse osteosarcoma cells, early-passage culture from an engineered mouse model of fibroblastic bone tumour. Knock-down reagent: siRNA pool against mouse genes, 40 nM. Timing: about 120 h (48 h before drug, then 72 h with drug). Treatment: doxorubicin 100 nM for 72 h, roughly 30-40% inhibitory dose. Read-out: 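Luminescent ATP signal taken as viability with or without 100 nM doxorubicin for 72 h; mean of two wells set against non-targeting siRNA and turned into robust z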. Scale: viability z-score with doxorubicin: higher = more viable cells under doxorubicin; viability z-score without drug: higher = more viable cells with knock-down alone. Call rule: 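a pool counts as active when its viability z-score with doxorubicin is -2 or below and its z-score without drug lies between -2 and 2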.
Here is one part, drawn at random, of about 17,000 reagents. 788 of them (4.7%) were called active. 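Calls rest on z-score classes alone; an extra cut-off of viability at most 70% of control was not applied to them.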 Entries without a mark were called inactive. Not all columns of the deposit are shown.

gene symbol	combined z-score class	viability z-score with doxorubicin	viability z-score without drug
P2rx6 (purinergic receptor P2X, ligand-gated ion channel, 6)	high cell count with doxorubicin only	2.02	0.34
Shroom2 (shroom family member 2)	low cell count with doxorubicin only (active)	-2.25	-0.34
Dio1 (deiodinase, iodothyronine, type I)	no change with or without drug	-0.56	0.84
Or1s2 (olfactory receptor family 1 subfamily S member 1)	no change with or without drug	0.34	-0.84
Hsf2 (heat shock factor 2)	no change with or without drug	-1.57	-0.51
H2al2a (H2A histone family member L2A)	high cell count without drug only	0.56	2.53
Sap30l (SAP30-like)	no change with or without drug	0.9	-0.84
Mpz (myelin protein zero)	no change with or without drug	0.22	-0.84
Atf7 (activating transcription factor 7)	no change with or without drug	0.9	-0.84
Mettl8 (methyltransferase 8, methylcytidine)	no change with or without drug	1.8	-0.17
Klrk1 (killer cell lectin-like receptor subfamily K, member 1)	low cell count with doxorubicin only (active)	-2.7	-1.52
Stard7 (StAR related lipid transfer domain containing 7)	high cell count without drug only	1.12	2.19
Brip1os	no change with or without drug	-0.45	0.84
Mapk1 (mitogen-activated protein kinase 1)	no change with or without drug	1.69	0.51
Ppcs (phosphopantothenoylcysteine synthetase)	no change with or without drug	0	1.52
Snurf (SNRPN upstream reading frame)	no change with or without drug	-0.45	-0.17
Ska1 (spindle and kinetochore associated complex subunit 1)	no change with or without drug	-0.22	-1.52
Slc30a6	high cell count with doxorubicin only	2.02	0.51
Tmie (transmembrane inner ear)	high cell count with doxorubicin only	2.02	1.85
1700084J12Rik (RIKEN cDNA 1700084J12 gene)	no change with or without drug	-1.12	-0.51
Ift38 (intraflagellar transport 38)	no change with or without drug	1.12	1.01
Pcdh20 (protocadherin 20)	no change with or without drug	-0.11	0.67

Only “combined z-score class”, for 8 of the entries above:
Klrk1 (killer cell lectin-like receptor subfamily K, member 1) = low cell count with doxorubicin only (active)
Stard7 (StAR related lipid transfer domain containing 7) = high cell count without drug only
Brip1os = no change with or without drug
Mapk1 (mitogen-activated protein kinase 1) = no change with or without drug
Ppcs (phosphopantothenoylcysteine synthetase) = no change with or without drug
Snurf (SNRPN upstream reading frame) = no change with or without drug
Ska1 (spindle and kinetochore associated complex subunit 1) = no change with or without drug
Slc30a6 = high cell count with doxorubicin only

The listing continues:
gene symbol	combined z-score class	viability z-score with doxorubicin	viability z-score without drug
Otx2 (orthodenticle homeobox 2)	no change with or without drug	-1.12	-0.51
Arap3 (ArfGAP with RhoGAP domain, ankyrin repeat and PH domain 3)	no change with or without drug	-0.9	0.67
Manf (mesencephalic astrocyte-derived neurotrophic factor)	no change with or without drug	0.45	1.85
Spint1 (serine protease inhibitor, Kunitz type 1)	no change with or without drug	1.12	0.84
Vmn1r78 (vomeronasal 1 receptor 78)	no change with or without drug	1.69	1.18
Pex11g (peroxisomal biogenesis factor 11 gamma)	low cell count with doxorubicin only (active)	-3.82	-1.52
Cenpp (centromere protein P)	no change with or without drug	0.67	1.18
Mrps16 (mitochondrial ribosomal protein S16)	low cell count with doxorubicin only (active)	-3.37	-1.52
Npc2 (NPC intracellular cholesterol transporter 2)	no change with or without drug	0.45	-0.51
Rex1bd (required for excision 1-B domain containing)	no change with or without drug	1.12	-0.84
Ppm1h (protein phosphatase 1H (PP2C domain containing))	no change with or without drug	-1.12	-0.51
Mrpl14 (mitochondrial ribosomal protein L14)	no change with or without drug	0	-0.67
Zdhhc2 (zinc finger, DHHC domain containing 2)	high cell count with doxorubicin only	3.04	1.35
6430571L13Rik (RIKEN cDNA 6430571L13 gene)	no change with or without drug	0.34	1.52
Fam204a (family with sequence similarity 204, member A)	low cell count with doxorubicin only (active)	-2.02	-0.51
Rpl22l1 (ribosomal protein L22 like 1)	no change with or without drug	-1.24	-1.35
5330438D12Rik (RIKEN cDNA 5330438D12 gene)	high cell count with and without drug	2.47	2.02
Or51a10 (olfactory receptor family 51 subfamily A member 10)	no change with or without drug	0.22	1.18
Epc1 (enhancer of polycomb homolog 1)	low cell count with doxorubicin only (active)	-2.47	0.67
C630004L07Rik (RIKEN cDNA C630004L07 gene)	no change with or without drug	0.45	1.35
Gimap4 (GTPase, IMAP family member 4)	no change with or without drug	-0.45	-1.18
Abhd2 (abhydrolase domain containing 2)	no change with or without drug	-0.45	-0.17
Amdhd2 (amidohydrolase domain containing 2)	no change with or without drug	-0.45	-0.17
Adcy8 (adenylate cyclase 8)	no change with or without drug	0.22	0
Olig2 (oligodendrocyte transcription factor 2)	no change with or without drug	0.9	0.67
Obscn	low cell count without drug only	0.45	-2.19
Ccdc134 (coiled-coil domain containing 134)	no change with or without drug	1.12	1.69
Litaf (LPS-induced TN factor)	low cell count with doxorubicin only (active)	-2.25	-1.52
